For at least one compound, name, drawing or mass did not settle the structure.
Test system: lipid peroxidation
Test: Lipid peroxidation in liver microsome (MDA, TBA)
Type: biochemical
Conditions: drug 50 μM, mean ± SD from 20 rats

Structure (SMILES): COC(=O)C[C@](O)(CCCC(C)(C)O)C(=O)O[C@@H]1C(OC)=C[C@]23CCCN2CCc2cc4c(cc2[C@H]13)OCO4 [HHT, Homoharringtonine]
- Nmoles MDA/mg protein: 8.5 ± 1.0 Nmoles MDA/mg protein
